Data as given in doi:10.1101/2022.04.26.489574.
No constants are given. Whether binding was seen depends on the method and setting. In cells and extracts the contact can be indirect. Some results given as binding are weak or reduced against the parent protein; the word gives no strength. For some of these results: Tags and fused reporters may be left off the sequences shown.

The chains behind the UniProt entries cited, without tags or fusion partners. Where a name states a change or a piece, a line headed by the entry shows the natural chain unless it says otherwise.
UniProt Q9HC29, whole entry: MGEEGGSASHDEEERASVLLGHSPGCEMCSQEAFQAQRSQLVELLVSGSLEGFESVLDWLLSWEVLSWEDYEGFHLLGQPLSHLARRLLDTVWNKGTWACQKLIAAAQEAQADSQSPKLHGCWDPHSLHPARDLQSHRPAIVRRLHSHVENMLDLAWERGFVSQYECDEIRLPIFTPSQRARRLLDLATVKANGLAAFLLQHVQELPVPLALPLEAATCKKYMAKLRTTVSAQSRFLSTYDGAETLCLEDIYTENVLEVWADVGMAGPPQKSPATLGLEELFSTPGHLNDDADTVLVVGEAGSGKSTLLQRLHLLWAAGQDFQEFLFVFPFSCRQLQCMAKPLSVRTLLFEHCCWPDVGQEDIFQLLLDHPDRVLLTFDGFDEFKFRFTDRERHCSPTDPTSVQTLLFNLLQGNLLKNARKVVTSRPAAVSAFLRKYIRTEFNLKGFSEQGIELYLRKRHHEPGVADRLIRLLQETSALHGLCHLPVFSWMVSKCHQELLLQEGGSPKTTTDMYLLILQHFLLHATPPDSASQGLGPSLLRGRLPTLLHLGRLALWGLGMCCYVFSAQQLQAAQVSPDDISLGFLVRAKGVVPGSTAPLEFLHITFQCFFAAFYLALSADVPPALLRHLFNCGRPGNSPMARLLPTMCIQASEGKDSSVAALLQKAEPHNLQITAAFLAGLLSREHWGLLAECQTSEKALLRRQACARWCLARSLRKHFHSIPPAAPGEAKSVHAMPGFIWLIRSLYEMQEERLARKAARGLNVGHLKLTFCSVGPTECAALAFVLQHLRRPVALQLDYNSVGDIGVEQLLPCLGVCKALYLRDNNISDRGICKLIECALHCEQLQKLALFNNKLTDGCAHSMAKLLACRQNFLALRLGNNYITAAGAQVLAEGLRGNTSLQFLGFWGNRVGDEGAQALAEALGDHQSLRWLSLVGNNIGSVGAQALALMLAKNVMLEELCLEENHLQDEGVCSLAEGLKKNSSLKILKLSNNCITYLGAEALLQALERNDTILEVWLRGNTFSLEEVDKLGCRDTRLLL

Experiments:
[1] = biological target: T1, GST-GIV-CT (aa 1660-1870; mammalian p-CEFL vector) (UniProt Q3V6T2); test: pull-down
T1 sequence: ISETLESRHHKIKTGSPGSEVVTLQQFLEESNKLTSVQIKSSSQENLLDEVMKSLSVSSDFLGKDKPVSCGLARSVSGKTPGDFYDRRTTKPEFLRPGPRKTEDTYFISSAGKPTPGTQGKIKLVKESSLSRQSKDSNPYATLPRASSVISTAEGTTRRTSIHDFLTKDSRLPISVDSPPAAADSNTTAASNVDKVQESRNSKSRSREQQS

[2] = biological target: GIV-FLAG (C-terminal FLAG-tagged GIV full length protein) (UniProt Q3V6T2); test: co-IP
[3] = biological target: HA-NOD2 (N-terminal HA-tagged NOD2 full length protein, wild type) (UniProt Q9HC29); test: co-IP

Substance | binding [1] | binding [2] | binding [3]
HA-NOD2 (N-terminal HA-tagged NOD2 full length protein, wild type) (from UniProt Q9HC29 1-1040) | binds | binds | binds
HA-NOD2 G908R (from UniProt Q9HC29 1-1040) | binds |  | 
